Assay [1] addresses ORF2 protein of hepatitis E virus (full-length) (hepatitis E virus (strain not stated)) (UniProt P29326). In words: co-IP; Huh7 cells transfected with ORF2 (alone or with myc tagged full-length or ΔF-βTRCP), [35S]-cys/met labeled; lysates immunoprecipitated with anti-ORF2 antibody, immunoblotted with anti-IκBα, SKP1, CUL1, SKP2 or anti-Myc antibodies.
The target is the same in assay [2]. The assay can be described thus: pull-down; ORF2 proteins immunoprecipitated from transfected Huh7 lysates with anti-ORF2 antibody, beads incubated with in vitro translated [35S]-cys/met labeled full-length βTRCP; bound βTRCP seen by autoradiography; only the target purified.
Assay [3] has as its target SKP2 (F-box protein), endogenous (human (endogenous in Huh7)) (UniProt Q13309). The assay can be described thus: co-IP; Huh7 cells transfected with pSGI, ORF2 or c-Myc constructs; lysates immunoprecipitated with anti-SKP2 or anti-myc antibody, immunoblotted with anti-SKP2 or anti-Myc antibodies. (In general: In western blotting, separated proteins are transferred to a membrane and probed.)

Sequences of proteins named here, by UniProt entry; tags and fusion partners are left off. Residues count along the entry.
UniProt P29326, residues 20-660: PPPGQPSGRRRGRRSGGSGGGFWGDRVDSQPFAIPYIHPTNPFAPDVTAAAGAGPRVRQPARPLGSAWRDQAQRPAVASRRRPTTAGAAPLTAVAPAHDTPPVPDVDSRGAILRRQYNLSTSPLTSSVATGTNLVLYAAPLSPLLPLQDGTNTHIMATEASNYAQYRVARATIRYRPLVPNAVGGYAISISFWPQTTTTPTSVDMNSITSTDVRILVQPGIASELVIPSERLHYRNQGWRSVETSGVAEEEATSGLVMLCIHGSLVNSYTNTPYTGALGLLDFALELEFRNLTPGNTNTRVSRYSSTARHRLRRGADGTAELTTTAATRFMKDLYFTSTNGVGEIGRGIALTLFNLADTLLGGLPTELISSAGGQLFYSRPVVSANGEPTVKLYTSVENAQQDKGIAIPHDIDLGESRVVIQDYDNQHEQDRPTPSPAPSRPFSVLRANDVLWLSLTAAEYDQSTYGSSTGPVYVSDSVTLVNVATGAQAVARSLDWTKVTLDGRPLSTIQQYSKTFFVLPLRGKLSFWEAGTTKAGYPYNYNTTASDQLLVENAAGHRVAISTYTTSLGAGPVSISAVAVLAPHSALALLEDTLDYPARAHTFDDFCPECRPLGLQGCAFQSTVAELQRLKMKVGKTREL
UniProt Q13309: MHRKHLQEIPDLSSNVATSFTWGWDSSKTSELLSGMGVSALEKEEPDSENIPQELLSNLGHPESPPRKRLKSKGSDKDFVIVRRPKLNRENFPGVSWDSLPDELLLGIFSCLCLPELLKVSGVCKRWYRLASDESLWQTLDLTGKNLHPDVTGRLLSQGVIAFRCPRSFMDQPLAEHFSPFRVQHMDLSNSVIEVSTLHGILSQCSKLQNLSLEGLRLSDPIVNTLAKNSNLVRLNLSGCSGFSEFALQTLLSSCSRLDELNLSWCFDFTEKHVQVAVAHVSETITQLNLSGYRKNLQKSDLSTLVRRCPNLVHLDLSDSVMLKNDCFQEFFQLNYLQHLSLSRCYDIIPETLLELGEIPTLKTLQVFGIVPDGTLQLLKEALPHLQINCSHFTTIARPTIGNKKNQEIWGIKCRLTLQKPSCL
UniProt Q9Y297: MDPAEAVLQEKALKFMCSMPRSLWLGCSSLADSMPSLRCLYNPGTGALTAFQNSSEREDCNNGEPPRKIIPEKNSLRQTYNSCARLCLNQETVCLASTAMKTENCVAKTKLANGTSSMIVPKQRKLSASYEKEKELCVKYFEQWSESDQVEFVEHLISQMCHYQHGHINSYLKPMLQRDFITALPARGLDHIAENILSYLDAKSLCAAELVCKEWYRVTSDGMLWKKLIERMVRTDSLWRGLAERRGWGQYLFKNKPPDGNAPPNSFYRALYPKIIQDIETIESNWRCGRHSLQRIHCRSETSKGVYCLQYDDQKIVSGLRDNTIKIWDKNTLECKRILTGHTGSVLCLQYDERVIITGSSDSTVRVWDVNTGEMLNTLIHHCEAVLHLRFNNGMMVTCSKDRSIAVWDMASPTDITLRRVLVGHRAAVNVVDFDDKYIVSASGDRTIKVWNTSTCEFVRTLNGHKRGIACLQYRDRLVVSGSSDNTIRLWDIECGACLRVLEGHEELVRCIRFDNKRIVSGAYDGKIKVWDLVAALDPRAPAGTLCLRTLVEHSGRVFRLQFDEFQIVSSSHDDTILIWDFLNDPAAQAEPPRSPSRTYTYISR
UniProt P25963: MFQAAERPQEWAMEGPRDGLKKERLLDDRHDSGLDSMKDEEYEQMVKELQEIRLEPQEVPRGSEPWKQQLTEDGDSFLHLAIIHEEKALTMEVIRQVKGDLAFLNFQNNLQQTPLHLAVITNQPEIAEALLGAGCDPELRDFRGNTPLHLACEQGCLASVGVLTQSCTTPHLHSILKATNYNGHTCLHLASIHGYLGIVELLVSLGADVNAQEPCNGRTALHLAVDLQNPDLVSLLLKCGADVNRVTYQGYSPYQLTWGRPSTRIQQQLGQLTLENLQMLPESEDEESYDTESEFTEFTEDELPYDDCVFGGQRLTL
UniProt P01106: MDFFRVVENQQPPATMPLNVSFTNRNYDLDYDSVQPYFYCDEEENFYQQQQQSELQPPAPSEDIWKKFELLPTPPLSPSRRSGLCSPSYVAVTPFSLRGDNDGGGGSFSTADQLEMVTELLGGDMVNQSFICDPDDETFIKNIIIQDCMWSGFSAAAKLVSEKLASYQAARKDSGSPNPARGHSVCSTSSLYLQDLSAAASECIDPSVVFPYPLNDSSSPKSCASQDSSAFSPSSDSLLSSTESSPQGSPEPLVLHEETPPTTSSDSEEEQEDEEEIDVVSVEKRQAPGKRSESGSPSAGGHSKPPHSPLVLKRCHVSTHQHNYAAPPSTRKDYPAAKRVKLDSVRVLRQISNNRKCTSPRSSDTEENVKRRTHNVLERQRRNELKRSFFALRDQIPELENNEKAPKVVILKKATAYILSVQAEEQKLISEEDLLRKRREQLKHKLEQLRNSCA
UniProt P63208: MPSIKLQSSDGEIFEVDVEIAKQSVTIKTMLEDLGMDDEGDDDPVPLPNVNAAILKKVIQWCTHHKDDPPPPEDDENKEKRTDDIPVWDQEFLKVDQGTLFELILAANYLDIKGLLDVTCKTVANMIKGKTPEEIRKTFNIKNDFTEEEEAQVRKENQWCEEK

These are yes or no findings as the source states them, for the method shown. Binding seen in cells or lysates may run through a third protein. Some results given as binding are weak or reduced against the parent protein; the word gives no strength.

As to “myc tagged full-length beta transducin repeat containing protein (βTRCP) (from UniProt Q9Y297 1-605)”, the binding entry in assay [1] is given as “binds”.

Take “in vitro translated [35S]-cys/met labeled full-length βTRCP protein (from UniProt Q9Y297 1-605)”: in assay [2], the binding result was “binds”.

In the case of “I kappa B alpha (IκBα) (from UniProt P25963 1-317)”, the binding entry in assay [1] is reported as “no binding”.

Consider “c-myc protein, endogenous (from UniProt P01106 1-454)”, for which the binding result in assay [3] is “binds”.

In the case of “c-myc protein, overexpressed (pSGI c-myc) (from UniProt P01106 1-454)”, the binding result in assay [3] is recorded as “binds”.

On to SKP1 (from UniProt P63208 1-163), for which the binding result in assay [1] is “no binding”.

Values taken from publication PMC3506457.
